Data as given in PubChem BioAssay AID1053208 (Peter MacCallum Cancer Centre, 2014)
Shown is one part, drawn at random, of about 17,000 reagents tested. Over the whole deposit, 788 (4.7%) got an active call. 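Calls rest on z-score classes alone; an extra cut-off of viability at most 70% of control was not applied to them.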 A number with no mark means an inactive call. No sequences are given here.

- Test: 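Genes whose silencing cuts survival of bone tumour cells only with doxorubicin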 (primary screen)
- System: mouse osteosarcoma cells, early-passage culture from an engineered mouse model of fibroblastic bone tumour
- Reagents: siRNA pool against mouse genes, 40 nM
- Timing: about 120 h (48 h before drug, then 72 h with drug)
- Treatment: doxorubicin 100 nM for 72 h, roughly 30-40% inhibitory dose
- Read-out: 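Luminescent ATP signal taken as viability with or without 100 nM doxorubicin for 72 h; mean of two wells set against non-targeting siRNA and turned into robust z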
- Direction: viability z-score with doxorubicin and doxorubicin viability vs non-targeting: higher = more viable cells under doxorubicin; viability z-score without drug: higher = more viable cells with knock-down alone; z-score of drug to no-drug ratio: higher = less drug sensitisation by knock-down
- Call rule: 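a pool counts as active when its viability z-score with doxorubicin is -2 or below and its z-score without drug lies between -2 and 2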

| Gene | combined z-score class | viability z-score with doxorubicin | viability z-score without drug | z-score of drug to no-drug ratio | doxorubicin viability vs non-targeting |
| --- | --- | --- | --- | --- | --- |
| Pigt | no change with or without drug | 0.11 | 1.18 | -0.56 | 0.95 |
| Stimate | no change with or without drug | -0.22 | -0.84 | 0.45 | 0.92 |
| Fam124b | no change with or without drug | -0.11 | 1.18 | -0.79 | 0.93 |
| Rrp8 | no change with or without drug | 0.67 | 0.67 | 0.34 | 1 |
| Rplp1 | low cell count with and without drug | -4.95 | -6.41 | -1.12 | 0.5 |
| Cdc42ep4 | no change with or without drug | -0.79 | 0.84 | -1.24 | 0.87 |
| Or8c11 | no change with or without drug | 0.45 | 0.67 | 0.11 | 0.98 |
| Atp1a1 | no change with or without drug | -0.45 | -1.18 | 0.45 | 0.9 |
| G6pd2 | no change with or without drug | 0.9 | 1.01 | 0.34 | 1.02 |
| Rxfp2 | no change with or without drug | -1.12 | -1.18 | -0.34 | 0.84 |
| Itga8 | no change with or without drug | 0.11 | -0.17 | 0.34 | 0.95 |
| Daglb | no change with or without drug | 1.12 | 1.01 | 0.56 | 1.04 |
| Retn | no change with or without drug | -1.12 | -0.84 | -0.56 | 0.84 |
| Tbc1d13 | no change with or without drug | 0.45 | 0 | 0.56 | 0.98 |
| Tmprss11b | no change with or without drug | 0.56 | 1.85 | -0.56 | 0.99 |
| Exoc3 | no change with or without drug | -0.79 | -1.85 | 0.67 | 0.87 |
| Vmn1r212 | high cell count with and without drug | 4.95 | 3.2 | 2.59 | 1.38 |
| Nr6a1 | no change with or without drug | 0.45 | -0.17 | 0.67 | 0.98 |
| Dhrs13 | no change with or without drug | 0.11 | -0.17 | 0.34 | 0.95 |
| Tlr7 | no change with or without drug | -0.79 | -0.17 | -0.56 | 0.87 |

In a second layout: results already given
Or8c11 → combined z-score class: no change with or without drug; viability z-score with doxorubicin: 0.45; viability z-score without drug: 0.67; z-score of drug to no-drug ratio: 0.11; doxorubicin viability vs non-targeting: 0.98
Atp1a1 → combined z-score class: no change with or without drug; viability z-score with doxorubicin: -0.45; viability z-score without drug: -1.18; z-score of drug to no-drug ratio: 0.45; doxorubicin viability vs non-targeting: 0.9
G6pd2 → combined z-score class: no change with or without drug; viability z-score with doxorubicin: 0.9; viability z-score without drug: 1.01; z-score of drug to no-drug ratio: 0.34; doxorubicin viability vs non-targeting: 1.02
